Binding data for one molecule are collected here from patent publication US20180258158A1 (Bristol-Myers Squibb, published 2018).

Chains of the proteins cited; added tags and fusions are not shown. Residues count along the entry.
UniProt P02768, residues 25-609: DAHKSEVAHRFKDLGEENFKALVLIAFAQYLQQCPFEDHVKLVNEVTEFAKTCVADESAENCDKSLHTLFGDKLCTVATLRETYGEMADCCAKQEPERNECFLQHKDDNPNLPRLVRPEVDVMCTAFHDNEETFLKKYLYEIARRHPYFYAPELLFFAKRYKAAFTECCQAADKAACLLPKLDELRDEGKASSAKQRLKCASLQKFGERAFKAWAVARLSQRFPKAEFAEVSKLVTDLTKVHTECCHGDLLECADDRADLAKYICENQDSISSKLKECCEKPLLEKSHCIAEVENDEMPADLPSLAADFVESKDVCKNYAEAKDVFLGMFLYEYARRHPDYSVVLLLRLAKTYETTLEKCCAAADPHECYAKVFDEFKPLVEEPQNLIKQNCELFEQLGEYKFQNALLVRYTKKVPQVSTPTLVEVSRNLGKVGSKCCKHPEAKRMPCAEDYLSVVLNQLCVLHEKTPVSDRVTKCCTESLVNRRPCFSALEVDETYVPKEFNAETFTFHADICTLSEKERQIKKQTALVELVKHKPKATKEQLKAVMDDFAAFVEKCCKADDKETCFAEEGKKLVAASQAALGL

No constants are given. Whether binding was seen depends on the method and setting. Some binding calls cover weakened binding; strength is not graded here.

The target of test [1] is T1, human serum albumin (HSA), full length (human, UniProt P02768 25-609).
T1 construct: mature; Immobilized on CM5 chip (SPR) or coated on plates (ELISA)
Kind of test: DB ELISA bin. For orientation: An ELISA detects its analyte on a solid surface through an enzyme-linked reagent.

The target in test [2] is T1, human serum albumin (HSA), full length. As to the kind of experiment: SPR off-rate screen (Biacore, CM5): albumin immobilised, Adnectin 500 nM as analyte, 120 s association, 800 s dissociation, 25 C; response normalised to 100 at start of dissociation; target HSA per legend paragraph 18 and paragraph 260, not printed on the sheet.

B1: ADX_6727_F03 (I43Y as printed in Table 4; I43A in Table 7) (designed binder)
chain: MGVSDVPRDLEVVAATPTSLLISWDAPAVTVRYYRITYGREVQKYSDLGPLYAYQEFTVPGSKSTATISGLKPGVDYTITVYAVTGSGESPASSKPISINYRTEIDKPSQHHHHHH
notes: Full His6-tagged entry
As for B1, the binding result in test [1] and in test [2] was “binds” each time.
